Only a part is listed here, and it is no random draw. At the low end of the ranking, values are background and their order means little.
Key:
Experiment in all cases: DAPPL (digital affinity profiling via proximity ligation, sequencing)
Conditions in all cases: 10 mM Tris-HCl pH 7.5, 50 mM NaCl, 1 mM DTT, 4% glycerol, room temperature, 30 min; GST-TFs on glutathione beads, 16-mer random dsDNA library, 0.1% …; high values mean tight binding; double strand, one strand shown; scale: fold enrichment (6-mer frequency, TF over GST control)
[1] = biological target: T1, FEV (UniProt Q99581)
T1 sequence: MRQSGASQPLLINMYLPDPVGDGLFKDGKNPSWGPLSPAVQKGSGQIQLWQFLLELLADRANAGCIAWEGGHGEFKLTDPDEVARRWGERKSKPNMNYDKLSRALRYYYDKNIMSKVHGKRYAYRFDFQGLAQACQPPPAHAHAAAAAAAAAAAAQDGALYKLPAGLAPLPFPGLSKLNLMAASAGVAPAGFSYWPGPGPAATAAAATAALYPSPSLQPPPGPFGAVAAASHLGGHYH

Chains of the proteins cited; added tags and fusions are not shown. Lines headed by an entry give the natural chain unless they say otherwise; changes in a name come on top.
UniProt O43186: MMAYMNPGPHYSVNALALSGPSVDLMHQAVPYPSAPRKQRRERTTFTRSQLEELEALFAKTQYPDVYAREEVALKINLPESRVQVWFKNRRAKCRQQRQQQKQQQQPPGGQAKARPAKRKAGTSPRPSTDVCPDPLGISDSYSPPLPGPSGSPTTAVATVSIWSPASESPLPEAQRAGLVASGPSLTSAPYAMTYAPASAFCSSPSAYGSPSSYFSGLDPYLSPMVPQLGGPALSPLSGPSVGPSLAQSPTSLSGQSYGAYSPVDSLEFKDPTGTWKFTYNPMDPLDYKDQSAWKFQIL

[2] = biological target: CRX (UniProt O43186)
[3] = biological target: T2, ELF5 (UniProt Q9UKW6-2)
T2 sequence: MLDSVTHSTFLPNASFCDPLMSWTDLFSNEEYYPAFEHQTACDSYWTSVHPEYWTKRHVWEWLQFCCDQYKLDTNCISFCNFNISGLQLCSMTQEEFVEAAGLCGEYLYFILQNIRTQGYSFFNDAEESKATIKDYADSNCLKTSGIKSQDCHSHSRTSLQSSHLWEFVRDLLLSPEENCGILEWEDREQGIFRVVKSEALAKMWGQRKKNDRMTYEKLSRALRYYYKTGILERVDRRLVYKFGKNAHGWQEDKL

Sequence	binding signal [1]	binding signal [2]	binding signal [3]
GCGCGC	0.909	0.858	0.967
CTGTGG	0.793	0.749	0.822
CCAGCA	0.943	0.847	0.824
CTAGTG	0.879	0.769	0.812
CGAAGA	0.777	0.863	0.713
TGTGCA	1.1	0.83	0.999
CCCGAA	1.37	1.61	1.32
GGTTGT	0.879	0.629	0.888
GTATTG	0.872	0.846	0.928
GCCAGA	0.715	0.716	0.64
TCCAAG	1.03	1.2	1.07
CGGCCC	1	0.631	0.904
TGAAGA	0.961	1	0.899
GCAGAA	0.944	0.794	0.844
TATCAA	0.96	1.21	0.954
GTCATT	0.952	0.837	0.97
CGGACC	0.941	0.545	0.821
TGGCGC	0.91	0.713	0.867
GATGGA	0.849	0.942	0.908
CACCCA	0.986	0.804	0.993
ATCGTT	0.959	1.14	0.994
GTATGT	0.942	0.683	0.96
AACTGT	0.917	0.786	0.944

Sequence	binding signal [1]	binding signal [2]	binding signal [3]
CAGAAA	0.935	1.07	0.887
GACGTT	0.913	0.792	1.01
CAAGCC	0.943	0.946	0.849
TTTGCA	1.18	1.48	1.24
CATGTT	0.943	0.884	0.972
ACAAGT	0.864	0.802	0.921
AGGTCC	0.919	0.665	0.98
GCGTCA	0.899	0.646	0.947
TGGGGT	1.02	0.917	1.01
CTAGAC	0.96	1	0.907
ACAAAG	0.954	0.961	0.936
GCCACC	1.01	0.66	0.913
ATCGCG	0.909	0.937	0.909
TGCGGT	0.992	0.786	0.954
GGCCCT	0.955	0.846	0.948
AGGAAT	0.728	0.882	0.884
ACAAGG	0.934	0.728	1.14
TCAGTT	0.959	0.932	0.937
GTCTAT	0.969	0.843	1.08
AGTTTG	0.863	0.773	0.919
GACCGC	0.962	0.739	0.943
CAGTAT	0.925	0.906	0.874
TTTGTT	1.19	1.46	1.27

Sequence	binding signal [1]	binding signal [2]	binding signal [3]
GAATGT	1.07	1.02	1.08
ACTTGA	0.888	0.937	0.981
GGTCCA	0.858	0.599	0.863
CGCGCG	0.899	0.802	0.914
GCAATC	1.05	1	0.936
CTCGGT	1.01	0.945	0.995
GCCGTC	0.927	0.738	0.946
ACGAGC	0.955	0.843	0.911
GGACTC	0.967	0.751	0.939
GAATAG	0.913	0.886	0.926
ACATGA	0.896	0.783	0.932
TTCGCT	1.2	1.13	1.23
CTGGCG	0.803	0.629	0.757
AACGGA	1.35	0.788	1.11
GCGACG	0.815	0.656	0.843
AACCGA	0.985	0.997	0.938
GTTGTC	0.855	0.563	0.923
TGTTGG	0.906	0.746	0.945
CGTACG	0.972	0.772	0.97
GCTCTC	1.47	1.24	1.2
GTGGAA	0.91	0.838	0.96
CATTGG	0.945	0.842	0.919
ATAGTG	0.889	0.894	0.893

Full records from above. Order of values: binding signal [1] | binding signal [2] | binding signal [3]
GACGTT is listed as 0.913 | 0.792 | 1.01
GAATGT is listed as 1.07 | 1.02 | 1.08
AGTTTG is listed as 0.863 | 0.773 | 0.919
CATTGG is listed as 0.945 | 0.842 | 0.919

Later entries

Sequence	binding signal [1]	binding signal [2]	binding signal [3]
GACCCC	0.904	0.663	0.849
CACGGC	0.944	0.811	0.939
CGCCCA	1.02	0.744	0.944
TATGTC	0.983	0.953	1.05
CGCTGT	0.884	0.744	0.898
ATCAGA	0.905	1.25	0.909
CTAAGG	0.936	1.12	0.978
CATCCA	0.934	0.873	0.932
GTCTGG	0.833	0.785	0.792
GTTCCC	1.27	0.966	1.48
CGGCAA	0.923	0.661	0.963
GAGAAA	0.702	0.761	0.678
TTCGGG	0.865	1	0.885
ATTGTG	0.873	0.921	0.861
GTTGTA	0.946	0.88	0.992
ATCACG	0.958	0.995	1.02
TTGAAG	0.919	1.03	0.996
CATTGA	0.95	0.842	0.938
GCACGA	1.09	0.868	0.985
TGTTAG	0.928	0.87	0.919
AGCATG	0.935	0.807	0.798

Source: PMC7862700
